PubChem BioAssay AID1224826 | NIAID | 2016
Screen: 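Knock-downs that raise or lower Tnf reporter signal after endotoxin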 (primary screen). Cell system: RAW264.7 G9 macrophages from mouse bearing reporters for p65 (GFP) and the Tnf promoter (mCherry). Reagent: siRNA pool against mouse genes, 100 nM. Time to read-out: 16 h of LPS stimulation, after 2 days of siRNA transfection. Challenge: bacterial lipopolysaccharide (Salmonella minnesota R595), 10 ng/ml. Measurement: 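Nuclear mCherry signal of the Tnf promoter reporter measured by imaging after background removal, scaled to each plate median and turned into robust z-scores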. Direction: Tnf reporter robust z-score: higher = stronger Tnf promoter reporter signal after LPS. Rule for the call: 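Called active when robust z-score is at most -1.3, matching the median of the Tlr4 knock-down control, or over 3; control wells and wells with under 50 cells never active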. Meaning of the calls: active = Tnf reporter clearly lowered or raised; inactive = no clear change in Tnf reporter.
Here is one part, drawn at random, of about 17,000 reagents. About 1,110 of all reagents (6.6%) were called active. 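Active means lowered or raised reporter signal; replicate intensities are raw and not normalised per plate.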 Not all columns of the deposit are shown.

gene	PubChem SID	Tnf reporter robust z-score	fewer than 50 cells in well	activity call
Men1 (multiple endocrine neoplasia 1)	SID315467900	-0.95	enough cells in well	inactive
Frmd6 (FERM domain containing 6)	SID315481152		fewer than 50 cells per well; well left out of calls	inactive
Ifng (interferon gamma)	SID315467397	-0.5	enough cells in well	inactive
Spag17 (sperm associated antigen 17)	SID315474953		fewer than 50 cells per well; well left out of calls	inactive
Ptprj (protein tyrosine phosphatase receptor type J)	SID315468814	0.45	enough cells in well	inactive
Ctrb1 (chymotrypsinogen B1)	SID315472463	-0.14	enough cells in well	inactive
Cplx2 (complexin 2)	SID315466096	-0.7	enough cells in well	inactive
Usp7 (ubiquitin specific peptidase 7)	SID315479907	-0.09	enough cells in well	inactive
Tmem154 (transmembrane protein 154)	SID315481395	-0.14	enough cells in well	inactive
Trip11 (thyroid hormone receptor interactor 11)	SID315476798		fewer than 50 cells per well; well left out of calls	inactive
Jpt2 (Jupiter microtubule associated homolog 2)	SID315470926	-0.53	enough cells in well	inactive
Gm9927 (predicted gene 9927)	SID315481640	0.64	enough cells in well	inactive
Arl6ip6 (ADP-ribosylation factor-like 6 interacting protein 6)	SID315472144	1.18	enough cells in well	inactive
Gsn (gelsolin)	SID315478604	-0.73	enough cells in well	inactive
Tbc1d13 (TBC1 domain family, member 13)	SID315474007	-0.4	enough cells in well	inactive
Pgk1 (phosphoglycerate kinase 1)	SID315468486	-0.13	enough cells in well	inactive
Pigp (phosphatidylinositol glycan anchor biosynthesis, class P)	SID315471380	-0.74	enough cells in well	inactive
Tdh (L-threonine dehydrogenase)	SID315471924	-0.82	enough cells in well	inactive
Emd (emerin)	SID315466491	0.61	enough cells in well	inactive
Smtnl2 (smoothelin-like 2)	SID315480976	0.08	enough cells in well	inactive
Hamp2 (hepcidin antimicrobial peptide 2)	SID315472442		fewer than 50 cells per well; well left out of calls	inactive
Fam216b (family with sequence similarity 216, member B)	SID315478247	0.38	enough cells in well	inactive
Gpr152 (G protein-coupled receptor 152)	SID315480826	0.18	enough cells in well	inactive
Crisp2 (cysteine-rich secretory protein 2)	SID315469811	-0.1	enough cells in well	inactive
Tle5 (TLE family member 5, transcriptional modulator)	SID315467023	-1	enough cells in well	inactive
Bccip (BRCA2 and CDKN1A interacting protein)	SID315472258	-1.24	enough cells in well	inactive
Sgsm1 (small G protein signaling modulator 1)	SID315471021	-0.37	enough cells in well	inactive
Cep104 (centrosomal protein 104)	SID315478847	0.65	enough cells in well	inactive
Atp1a2 (ATPase, Na+/K+ transporting, alpha 2 polypeptide)	SID315476139	0.09	enough cells in well	inactive
Ccdc28b (coiled coil domain containing 28B)	SID315472327	1.49	enough cells in well	inactive
Btf3l4 (basic transcription factor 3-like 4)	SID315474074		fewer than 50 cells per well; well left out of calls	inactive
Fsd1l (fibronectin type III and SPRY domain containing 1-like)	SID315481137	0.53	enough cells in well	inactive
Nubp1 (nucleotide binding protein 1)	SID315470400	-0.76	enough cells in well	inactive
Vmn1r183 (vomeronasal 1 receptor 183)	SID315477618		fewer than 50 cells per well; well left out of calls	inactive
Zdhhc9 (zinc finger, DHHC domain containing 9)	SID315477560	0.13	enough cells in well	inactive
Or5w8 (olfactory receptor family 5 subfamily W member 8)	SID315480288	-1.02	enough cells in well	inactive
9330119M13Rik (RIKEN cDNA 9330119M13 gene)	SID315481201	-0.44	enough cells in well	inactive
4933436I01Rik (RIKEN cDNA 4933436I01 gene)	SID315472635	-1.09	enough cells in well	inactive
Tspan15 (tetraspanin 15)	SID315474047		fewer than 50 cells per well; well left out of calls	inactive
Msh5 (mutS homolog 5)	SID315467989	0.69	enough cells in well	inactive
Eva1b (eva-1 homolog B)	SID315478818		fewer than 50 cells per well; well left out of calls	inactive
Atp6v1b2 (ATPase, H+ transporting, lysosomal V1 subunit B2)	SID315465562	0.87	enough cells in well	inactive
Ro60 (Ro60, Y RNA binding protein)	SID315469471	0.8	enough cells in well	inactive
Ube2j1 (ubiquitin-conjugating enzyme E2J 1)	SID315471416	-0.16	enough cells in well	inactive
Gm5114 (predicted gene 5114)	SID315481601		fewer than 50 cells per well; well left out of calls	inactive
Shisa4 (shisa family member 4)	SID315475476	0.29	enough cells in well	inactive
Alms1 (ALMS1, centrosome and basal body associated)	SID315479295	2	enough cells in well	inactive
Krt42 (keratin 42)	SID315473469	0.04	enough cells in well	inactive
Vmn1r87 (vomeronasal 1 receptor 87)	SID315477336	-0.99	enough cells in well	inactive
Polr2m (polymerase (RNA) II (DNA directed) polypeptide M)	SID315470657	-0.79	enough cells in well	inactive
Zfp612 (zinc finger protein 612)	SID315479190	0.21	enough cells in well	inactive
Clec2i (C-type lectin domain family 2, member i)	SID315475915	0.05	enough cells in well	inactive
Klra5 (killer cell lectin-like receptor, subfamily A, member 5)	SID315467665	0.06	enough cells in well	inactive
Pard3b (par-3 family cell polarity regulator beta)	SID315474631	0.79	enough cells in well	inactive
Acsl1 (acyl-CoA synthetase long-chain family member 1)	SID315466615	-0.24	enough cells in well	inactive
C630004L07Rik (RIKEN cDNA C630004L07 gene)	SID315481563	0.57	enough cells in well	inactive
Pstk (phosphoseryl-tRNA kinase)	SID315477872	-0.93	enough cells in well	inactive
Nfrkb (nuclear factor related to kappa B binding protein)	SID315479230	-0.01	enough cells in well	inactive

Targets listed so far whose target name begins with F or f:
gene	PubChem SID	Tnf reporter robust z-score	fewer than 50 cells in well	activity call
Frmd6 (FERM domain containing 6)	SID315481152		fewer than 50 cells per well; well left out of calls	inactive
Fam216b (family with sequence similarity 216, member B)	SID315478247	0.38	enough cells in well	inactive
Fsd1l (fibronectin type III and SPRY domain containing 1-like)	SID315481137	0.53	enough cells in well	inactive
